Test results taken from article PMC7305295.
No constants are given. Whether binding was seen depends on the method and setting. Binding seen in cells or lysates may run through a third protein. Some results given as binding are weak or reduced against the parent protein; the word gives no strength.

By UniProt entry, the sequences of proteins in these tests, tags left out.
UniProt Q9NRC8: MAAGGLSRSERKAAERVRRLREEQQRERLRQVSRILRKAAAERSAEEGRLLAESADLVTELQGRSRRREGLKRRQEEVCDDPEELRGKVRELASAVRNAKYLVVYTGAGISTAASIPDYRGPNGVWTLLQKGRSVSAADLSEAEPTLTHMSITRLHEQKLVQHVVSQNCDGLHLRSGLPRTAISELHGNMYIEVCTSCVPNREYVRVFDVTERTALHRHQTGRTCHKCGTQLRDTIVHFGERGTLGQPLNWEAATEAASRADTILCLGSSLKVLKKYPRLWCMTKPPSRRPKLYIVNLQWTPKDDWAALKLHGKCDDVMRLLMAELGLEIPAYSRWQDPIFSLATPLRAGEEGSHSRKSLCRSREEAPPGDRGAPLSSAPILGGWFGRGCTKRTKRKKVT
UniProt Q13185: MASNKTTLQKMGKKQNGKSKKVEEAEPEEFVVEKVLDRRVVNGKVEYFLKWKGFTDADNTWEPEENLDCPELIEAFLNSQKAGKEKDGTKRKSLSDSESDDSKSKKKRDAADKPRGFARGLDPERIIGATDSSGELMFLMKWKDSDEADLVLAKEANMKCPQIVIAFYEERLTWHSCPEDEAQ
UniProt P45973: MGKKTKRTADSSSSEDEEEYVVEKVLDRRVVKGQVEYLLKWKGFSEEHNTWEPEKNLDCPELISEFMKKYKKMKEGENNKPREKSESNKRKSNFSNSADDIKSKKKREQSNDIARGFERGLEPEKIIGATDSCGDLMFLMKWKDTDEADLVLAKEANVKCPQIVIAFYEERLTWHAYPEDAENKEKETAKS
UniProt Q13263: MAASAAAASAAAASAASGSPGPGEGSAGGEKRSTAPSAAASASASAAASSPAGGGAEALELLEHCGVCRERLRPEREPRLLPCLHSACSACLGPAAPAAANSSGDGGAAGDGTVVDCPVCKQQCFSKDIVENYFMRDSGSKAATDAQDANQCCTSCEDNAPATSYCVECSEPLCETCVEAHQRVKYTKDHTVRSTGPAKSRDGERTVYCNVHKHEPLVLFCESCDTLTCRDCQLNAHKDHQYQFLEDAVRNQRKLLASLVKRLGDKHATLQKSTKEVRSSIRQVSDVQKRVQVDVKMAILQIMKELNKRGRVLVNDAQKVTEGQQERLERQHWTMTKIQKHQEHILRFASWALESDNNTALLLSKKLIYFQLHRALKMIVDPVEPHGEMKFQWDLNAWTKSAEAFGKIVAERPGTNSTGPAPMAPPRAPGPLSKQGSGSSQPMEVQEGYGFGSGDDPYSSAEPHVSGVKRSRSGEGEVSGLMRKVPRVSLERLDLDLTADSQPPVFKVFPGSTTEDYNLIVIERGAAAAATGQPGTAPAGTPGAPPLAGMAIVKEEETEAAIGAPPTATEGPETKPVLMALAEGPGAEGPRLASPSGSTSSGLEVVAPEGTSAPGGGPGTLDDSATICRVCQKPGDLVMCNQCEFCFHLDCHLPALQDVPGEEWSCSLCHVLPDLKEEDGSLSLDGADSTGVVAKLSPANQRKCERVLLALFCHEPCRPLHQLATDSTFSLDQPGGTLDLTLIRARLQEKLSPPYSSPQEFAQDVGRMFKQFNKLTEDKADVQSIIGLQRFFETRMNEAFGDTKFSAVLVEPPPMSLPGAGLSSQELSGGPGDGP
UniProt P20700: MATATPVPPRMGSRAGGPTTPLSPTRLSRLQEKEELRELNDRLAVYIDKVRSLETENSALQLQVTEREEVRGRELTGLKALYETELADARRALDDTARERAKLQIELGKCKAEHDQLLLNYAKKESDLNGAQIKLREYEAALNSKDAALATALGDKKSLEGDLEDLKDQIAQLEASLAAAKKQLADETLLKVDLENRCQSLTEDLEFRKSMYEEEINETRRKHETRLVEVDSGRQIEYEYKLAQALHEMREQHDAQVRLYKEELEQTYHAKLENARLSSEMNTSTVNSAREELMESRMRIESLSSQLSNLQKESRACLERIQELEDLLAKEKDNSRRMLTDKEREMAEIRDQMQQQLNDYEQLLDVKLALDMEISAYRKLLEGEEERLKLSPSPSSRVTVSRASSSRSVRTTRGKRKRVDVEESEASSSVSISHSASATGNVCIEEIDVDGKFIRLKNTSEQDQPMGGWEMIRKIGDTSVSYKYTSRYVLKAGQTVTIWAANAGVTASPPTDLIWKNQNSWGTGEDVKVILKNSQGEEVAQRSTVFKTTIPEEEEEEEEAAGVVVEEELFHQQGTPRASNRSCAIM
UniProt Q14739: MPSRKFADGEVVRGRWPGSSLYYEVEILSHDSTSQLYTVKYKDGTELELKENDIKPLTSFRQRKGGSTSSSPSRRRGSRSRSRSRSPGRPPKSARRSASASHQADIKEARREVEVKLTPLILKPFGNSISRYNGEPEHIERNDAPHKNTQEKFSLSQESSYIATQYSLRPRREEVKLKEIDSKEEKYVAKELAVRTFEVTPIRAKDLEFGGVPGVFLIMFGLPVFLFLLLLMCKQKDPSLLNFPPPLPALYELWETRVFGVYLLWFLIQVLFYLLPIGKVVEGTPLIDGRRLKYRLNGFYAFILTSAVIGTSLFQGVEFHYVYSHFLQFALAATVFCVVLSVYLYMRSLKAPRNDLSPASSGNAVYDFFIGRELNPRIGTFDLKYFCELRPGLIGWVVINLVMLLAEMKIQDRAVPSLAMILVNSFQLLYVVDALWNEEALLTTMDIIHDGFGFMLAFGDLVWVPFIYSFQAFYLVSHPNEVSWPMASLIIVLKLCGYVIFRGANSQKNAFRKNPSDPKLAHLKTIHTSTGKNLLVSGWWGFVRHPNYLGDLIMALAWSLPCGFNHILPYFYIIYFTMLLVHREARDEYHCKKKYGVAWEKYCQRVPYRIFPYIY

Tests used:
Flag-tagged SIRT7 = Flag-tagged SIRT7 (UniProt Q9NRC8); test: co-IP; HEK293T cells transfected with Flag-SIRT7 (Flag-Luc as control); CHAPS lysis buffer (120 mmol/L NaCl, 0.3% CHAPS, 1 mmol/L EDTA, 40 mmol/L HEPES, pH 7.5), 4 °C; partners detected by Western blot
[1] = molecular target: endogenous SIRT7 protein (human (endogenous in hMSCs)) (UniProt Q9NRC8); test: co-IP; endogenous SIRT7 immunoprecipitated from WT hMSC lysate (1 mg protein, CHAPS lysis buffer, pre-cleared with Protein A/G-PLUS Agarose beads, antibody and beads overnight at 4 °C); partners detected by Western blot

Substance	binding (Flag-tagged SIRT7)	binding [1]
HP1γ (from UniProt Q13185 1-183)	binds	binds
heterochromatin protein 1 α (HP1α) (from UniProt P45973 1-191)	binds	binds
heterochromatin protein KAP1 (from UniProt Q13263 1-835)	binds	binds

Results, then the substance that gave them:

binding (Flag-tagged SIRT7)	binding [1]	Substance
binds	binds	Lamin B1 (from UniProt P20700 1-586)
binds	binds	nuclear lamina protein LBR (from UniProt Q14739 1-615)
